Data on 14 targets can be found in the supplement of paper PMC6411743.

Chains of the proteins cited; added tags and fusions are not shown. Lines headed by an entry give the natural chain unless they say otherwise; changes in a name come on top.
UniProt Q7Z6P3: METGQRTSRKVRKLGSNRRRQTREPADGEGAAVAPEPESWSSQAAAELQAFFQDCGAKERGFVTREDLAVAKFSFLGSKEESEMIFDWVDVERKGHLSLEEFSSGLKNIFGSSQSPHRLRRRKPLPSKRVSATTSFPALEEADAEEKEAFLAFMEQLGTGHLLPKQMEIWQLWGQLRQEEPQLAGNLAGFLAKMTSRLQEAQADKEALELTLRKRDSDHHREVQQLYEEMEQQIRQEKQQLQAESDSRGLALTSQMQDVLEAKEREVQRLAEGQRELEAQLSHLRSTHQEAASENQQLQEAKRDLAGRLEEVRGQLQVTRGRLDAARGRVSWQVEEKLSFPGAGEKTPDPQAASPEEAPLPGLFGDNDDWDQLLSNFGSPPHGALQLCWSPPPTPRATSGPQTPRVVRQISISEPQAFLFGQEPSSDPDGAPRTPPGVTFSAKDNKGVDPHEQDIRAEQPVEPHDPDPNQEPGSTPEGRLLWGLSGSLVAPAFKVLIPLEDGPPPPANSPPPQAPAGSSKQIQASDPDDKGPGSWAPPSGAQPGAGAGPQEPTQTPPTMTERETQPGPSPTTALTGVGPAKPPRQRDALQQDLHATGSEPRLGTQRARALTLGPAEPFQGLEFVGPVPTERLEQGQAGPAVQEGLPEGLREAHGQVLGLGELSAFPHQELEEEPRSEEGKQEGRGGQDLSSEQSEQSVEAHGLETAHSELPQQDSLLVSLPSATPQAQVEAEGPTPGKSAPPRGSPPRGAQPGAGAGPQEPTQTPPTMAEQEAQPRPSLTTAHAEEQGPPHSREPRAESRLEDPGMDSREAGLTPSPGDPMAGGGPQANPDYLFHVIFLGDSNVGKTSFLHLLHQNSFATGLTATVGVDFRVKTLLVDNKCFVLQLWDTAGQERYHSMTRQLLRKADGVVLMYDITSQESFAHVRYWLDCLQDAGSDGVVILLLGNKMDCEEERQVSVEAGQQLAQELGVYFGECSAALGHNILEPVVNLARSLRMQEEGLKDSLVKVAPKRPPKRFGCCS
UniProt Q9NVU0: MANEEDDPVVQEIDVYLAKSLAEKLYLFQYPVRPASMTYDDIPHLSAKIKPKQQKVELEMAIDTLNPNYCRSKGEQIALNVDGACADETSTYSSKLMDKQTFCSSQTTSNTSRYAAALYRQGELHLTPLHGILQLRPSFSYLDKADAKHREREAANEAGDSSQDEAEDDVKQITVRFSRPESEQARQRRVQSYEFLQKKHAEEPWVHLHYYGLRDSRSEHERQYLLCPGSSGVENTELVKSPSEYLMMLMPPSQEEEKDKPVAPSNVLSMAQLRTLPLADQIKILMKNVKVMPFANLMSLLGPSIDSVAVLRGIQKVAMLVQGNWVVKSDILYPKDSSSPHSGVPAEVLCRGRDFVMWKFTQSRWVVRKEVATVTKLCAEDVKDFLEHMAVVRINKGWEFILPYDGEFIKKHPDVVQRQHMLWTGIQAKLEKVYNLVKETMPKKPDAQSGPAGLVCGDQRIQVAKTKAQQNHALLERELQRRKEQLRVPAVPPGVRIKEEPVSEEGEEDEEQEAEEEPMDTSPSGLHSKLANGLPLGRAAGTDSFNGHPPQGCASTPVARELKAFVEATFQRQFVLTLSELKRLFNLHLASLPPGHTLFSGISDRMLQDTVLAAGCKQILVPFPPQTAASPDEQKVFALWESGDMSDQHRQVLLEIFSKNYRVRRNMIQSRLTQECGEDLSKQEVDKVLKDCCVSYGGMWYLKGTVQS
UniProt P57737: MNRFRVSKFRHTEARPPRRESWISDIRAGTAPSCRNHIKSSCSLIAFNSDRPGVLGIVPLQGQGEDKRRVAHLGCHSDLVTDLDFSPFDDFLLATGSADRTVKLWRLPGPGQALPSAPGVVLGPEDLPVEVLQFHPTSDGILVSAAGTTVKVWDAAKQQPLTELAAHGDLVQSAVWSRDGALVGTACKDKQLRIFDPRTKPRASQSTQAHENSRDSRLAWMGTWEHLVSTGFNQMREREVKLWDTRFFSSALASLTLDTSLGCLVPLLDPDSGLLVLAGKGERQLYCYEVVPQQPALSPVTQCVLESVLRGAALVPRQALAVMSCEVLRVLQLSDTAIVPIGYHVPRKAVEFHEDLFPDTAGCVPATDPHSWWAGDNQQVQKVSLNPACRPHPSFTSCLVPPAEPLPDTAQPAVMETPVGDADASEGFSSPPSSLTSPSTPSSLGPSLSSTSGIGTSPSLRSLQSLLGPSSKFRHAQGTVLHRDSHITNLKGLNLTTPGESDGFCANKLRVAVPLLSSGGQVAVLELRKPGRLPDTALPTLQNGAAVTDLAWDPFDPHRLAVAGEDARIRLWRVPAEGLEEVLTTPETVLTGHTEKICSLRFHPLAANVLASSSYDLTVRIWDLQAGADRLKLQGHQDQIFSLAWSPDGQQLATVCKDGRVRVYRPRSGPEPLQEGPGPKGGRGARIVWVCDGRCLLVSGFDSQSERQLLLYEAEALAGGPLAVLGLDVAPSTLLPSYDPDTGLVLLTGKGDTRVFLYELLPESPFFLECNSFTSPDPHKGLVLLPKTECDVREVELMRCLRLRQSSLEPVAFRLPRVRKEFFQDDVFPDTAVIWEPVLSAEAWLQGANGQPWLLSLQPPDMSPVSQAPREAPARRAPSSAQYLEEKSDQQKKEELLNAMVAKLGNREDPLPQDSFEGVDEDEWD
UniProt Q9Y3C1: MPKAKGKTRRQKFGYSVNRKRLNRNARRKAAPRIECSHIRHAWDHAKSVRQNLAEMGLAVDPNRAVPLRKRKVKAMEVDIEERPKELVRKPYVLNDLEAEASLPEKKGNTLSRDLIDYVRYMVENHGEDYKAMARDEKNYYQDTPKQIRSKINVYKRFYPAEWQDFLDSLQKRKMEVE
UniProt Q99836, whole entry: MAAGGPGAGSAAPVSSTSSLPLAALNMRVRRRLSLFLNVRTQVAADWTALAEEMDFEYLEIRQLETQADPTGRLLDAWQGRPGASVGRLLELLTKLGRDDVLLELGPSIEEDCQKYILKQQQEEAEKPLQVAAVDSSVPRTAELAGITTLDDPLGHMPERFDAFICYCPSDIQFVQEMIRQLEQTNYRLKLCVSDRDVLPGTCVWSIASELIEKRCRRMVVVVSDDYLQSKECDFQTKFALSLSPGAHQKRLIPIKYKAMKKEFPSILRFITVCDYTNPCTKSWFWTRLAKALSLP
UniProt Q13277: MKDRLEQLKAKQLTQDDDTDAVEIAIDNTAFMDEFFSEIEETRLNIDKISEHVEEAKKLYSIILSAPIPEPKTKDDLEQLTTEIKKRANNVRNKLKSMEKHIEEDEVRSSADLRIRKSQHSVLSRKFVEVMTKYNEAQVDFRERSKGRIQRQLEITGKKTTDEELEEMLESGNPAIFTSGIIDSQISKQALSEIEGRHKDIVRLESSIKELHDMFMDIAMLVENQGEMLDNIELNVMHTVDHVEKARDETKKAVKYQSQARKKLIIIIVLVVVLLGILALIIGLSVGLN
UniProt Q9BV38: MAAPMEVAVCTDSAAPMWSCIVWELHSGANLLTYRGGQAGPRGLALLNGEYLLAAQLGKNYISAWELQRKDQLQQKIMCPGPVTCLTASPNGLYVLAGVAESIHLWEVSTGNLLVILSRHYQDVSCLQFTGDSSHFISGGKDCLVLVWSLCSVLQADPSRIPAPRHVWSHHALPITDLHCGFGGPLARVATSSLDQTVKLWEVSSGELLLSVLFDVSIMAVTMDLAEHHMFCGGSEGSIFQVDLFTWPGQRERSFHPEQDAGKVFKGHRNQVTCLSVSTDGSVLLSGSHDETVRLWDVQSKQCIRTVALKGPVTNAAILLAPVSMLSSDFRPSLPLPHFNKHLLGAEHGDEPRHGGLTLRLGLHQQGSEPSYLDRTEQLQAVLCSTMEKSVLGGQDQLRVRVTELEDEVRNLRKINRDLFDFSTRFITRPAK
UniProt Q5TBB1: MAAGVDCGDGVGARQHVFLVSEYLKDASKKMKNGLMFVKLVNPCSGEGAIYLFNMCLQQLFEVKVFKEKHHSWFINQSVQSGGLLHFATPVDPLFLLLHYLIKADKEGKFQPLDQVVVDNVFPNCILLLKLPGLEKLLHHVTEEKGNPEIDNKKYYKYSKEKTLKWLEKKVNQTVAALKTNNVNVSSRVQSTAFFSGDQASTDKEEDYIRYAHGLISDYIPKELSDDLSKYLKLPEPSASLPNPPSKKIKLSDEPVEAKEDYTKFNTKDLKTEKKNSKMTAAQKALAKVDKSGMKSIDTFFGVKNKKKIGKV
UniProt P08575: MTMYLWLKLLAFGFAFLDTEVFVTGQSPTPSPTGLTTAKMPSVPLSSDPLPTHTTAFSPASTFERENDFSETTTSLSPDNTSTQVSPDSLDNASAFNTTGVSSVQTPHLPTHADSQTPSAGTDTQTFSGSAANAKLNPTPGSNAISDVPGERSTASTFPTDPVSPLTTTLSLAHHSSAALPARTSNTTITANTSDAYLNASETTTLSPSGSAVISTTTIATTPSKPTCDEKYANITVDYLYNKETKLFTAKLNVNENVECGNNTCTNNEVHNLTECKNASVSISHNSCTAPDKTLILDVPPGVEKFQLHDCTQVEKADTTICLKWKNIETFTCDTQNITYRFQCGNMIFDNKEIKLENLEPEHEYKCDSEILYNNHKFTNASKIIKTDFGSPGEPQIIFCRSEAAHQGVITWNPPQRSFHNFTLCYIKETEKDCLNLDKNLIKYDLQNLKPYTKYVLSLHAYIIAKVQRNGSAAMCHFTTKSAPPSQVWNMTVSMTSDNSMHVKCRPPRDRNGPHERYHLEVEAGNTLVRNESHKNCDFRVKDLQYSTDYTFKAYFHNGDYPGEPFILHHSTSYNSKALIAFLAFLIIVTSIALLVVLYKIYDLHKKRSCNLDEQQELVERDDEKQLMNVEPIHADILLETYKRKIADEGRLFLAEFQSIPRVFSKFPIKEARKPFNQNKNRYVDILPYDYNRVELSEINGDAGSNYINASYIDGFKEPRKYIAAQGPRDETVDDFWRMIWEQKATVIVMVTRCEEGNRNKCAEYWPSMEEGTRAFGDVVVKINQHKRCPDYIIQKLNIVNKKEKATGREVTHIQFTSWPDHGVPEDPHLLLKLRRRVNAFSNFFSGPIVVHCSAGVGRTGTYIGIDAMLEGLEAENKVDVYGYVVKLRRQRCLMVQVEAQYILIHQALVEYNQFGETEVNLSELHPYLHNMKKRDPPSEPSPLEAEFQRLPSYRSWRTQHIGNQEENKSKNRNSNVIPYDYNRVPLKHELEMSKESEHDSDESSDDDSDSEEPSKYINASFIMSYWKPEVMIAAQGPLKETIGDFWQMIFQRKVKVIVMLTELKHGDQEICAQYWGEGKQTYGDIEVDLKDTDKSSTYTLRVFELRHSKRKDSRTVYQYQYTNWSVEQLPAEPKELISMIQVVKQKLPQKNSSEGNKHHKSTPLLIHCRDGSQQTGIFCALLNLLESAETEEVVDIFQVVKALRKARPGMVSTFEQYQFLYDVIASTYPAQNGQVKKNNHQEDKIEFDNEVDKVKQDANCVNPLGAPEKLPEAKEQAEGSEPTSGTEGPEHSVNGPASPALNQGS
UniProt P59780: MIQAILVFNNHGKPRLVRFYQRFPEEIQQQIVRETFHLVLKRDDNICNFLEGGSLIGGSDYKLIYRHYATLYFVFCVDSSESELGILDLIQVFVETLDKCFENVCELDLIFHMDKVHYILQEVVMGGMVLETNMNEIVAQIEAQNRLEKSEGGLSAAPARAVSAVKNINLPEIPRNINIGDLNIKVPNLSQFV
UniProt Q5VWQ0: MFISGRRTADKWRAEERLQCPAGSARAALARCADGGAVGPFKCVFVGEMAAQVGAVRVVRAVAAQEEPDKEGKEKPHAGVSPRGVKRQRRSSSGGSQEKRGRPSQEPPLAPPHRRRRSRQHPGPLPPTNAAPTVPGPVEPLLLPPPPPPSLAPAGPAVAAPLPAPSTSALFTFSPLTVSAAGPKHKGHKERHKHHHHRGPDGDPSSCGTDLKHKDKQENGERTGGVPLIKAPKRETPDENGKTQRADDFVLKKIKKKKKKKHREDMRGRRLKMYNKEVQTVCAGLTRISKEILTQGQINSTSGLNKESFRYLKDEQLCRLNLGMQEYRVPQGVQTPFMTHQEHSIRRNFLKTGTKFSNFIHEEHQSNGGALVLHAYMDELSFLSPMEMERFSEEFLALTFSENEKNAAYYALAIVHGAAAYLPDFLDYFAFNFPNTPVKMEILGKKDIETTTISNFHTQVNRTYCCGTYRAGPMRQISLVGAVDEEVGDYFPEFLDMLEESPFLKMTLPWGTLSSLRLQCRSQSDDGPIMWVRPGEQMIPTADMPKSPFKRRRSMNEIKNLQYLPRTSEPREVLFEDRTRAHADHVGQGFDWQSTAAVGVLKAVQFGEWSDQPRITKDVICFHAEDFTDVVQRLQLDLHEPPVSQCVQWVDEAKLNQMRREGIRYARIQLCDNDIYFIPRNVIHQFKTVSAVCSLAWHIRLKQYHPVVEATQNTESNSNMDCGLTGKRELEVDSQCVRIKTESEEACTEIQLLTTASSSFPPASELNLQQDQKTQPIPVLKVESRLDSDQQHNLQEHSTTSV

± gives the standard deviation of the averaged measurements. Only a part is listed here, and it is no random draw. Most values lie at the level of the controls, where differences are scatter.

Compound in this test: Nc1ncnc2c1ncn2[C@@H]1O[C@H](COP(=O)(O)OP(=O)(O)NP(=O)(O)O)[C@@H](O)[C@H]1O [adenylyl imidodiphosphate]
The experiment in a line: NP40-soluble protein abundance relative to vehicle (solubility fold change) (ratio); higher = more soluble protein in presence of AMP-PNP. In a few lines:
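Data come from three independent experiments in which Dounce-homogenised Jurkat crude lysate was treated at eight concentrations from 0.1 to 10 mM. Treatment ran 10 min at room temperature and then 3 min at 37 °C, after which 0.8% NP40 and benzonase were added for 60 min at 4 °C before ultracentrifugation. The supernatant underwent TMT labelling and LC-MS/MS, and vsn-normalised intensities were expressed as fold change against the detergent-processed vehicle in each replicate.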

Regarding A0A087WXI0 (UniProt Q7Z6P3), the NP40-soluble protein abundance reads like this: (concentration: 0.1mM) 1.04 ± 0.027; (concentration: 0.5mM) 1.01 ± 0.022.

In the case of “A0A0C4DH01|Q9NVU0 and related entries (UniProt Q9NVU0)”, the NP40-soluble protein abundance runs as follows: (concentration: 0.1mM) 1.02 ± 0.042; (concentration: 0.5mM) 1.01 ± 0.036.

Turning to “A0A0U1RQK7|A0A0A0MSA7|O43432 and related entries (UniProt O43432)”, the NP40-soluble protein abundance turned out to be 0.9889 ± 0.0049 (concentration: 0.1mM) and 0.989 ± 0.03 (concentration: 0.5mM).

On to A0A0A6YYL4|P57737-3 (UniProt P57737), for which the NP40-soluble protein abundance (concentration: 0.1mM) stood at 1.03 ± 0.022 and the NP40-soluble protein abundance (concentration: 0.5mM) is 1 ± 0.025.

Take “A0A087X2G6|A0A0C4DGU5|D6RIC3 and related entries (UniProt Q9Y3C1)”: the NP40-soluble protein abundance runs as follows: (concentration: 0.1mM) 1 ± 0.038; (concentration: 0.5mM) 1.01 ± 0.018.

On to “A0A0A0MS70|A0A0A0MST0|H0Y4G9 and related entries (UniProt Q99836)”, for which the NP40-soluble protein abundance runs as follows: (concentration: 0.1mM) 1.04 ± 0.024; (concentration: 0.5mM) 0.968 ± 0.018.

On to “A0A0J9YW33|Q13277 and related entries (UniProt Q13277)”, for which the NP40-soluble protein abundance (concentration: 0.1mM) amounted to 0.997 ± 0.051 and the NP40-soluble protein abundance (concentration: 0.5mM) came out at 1.02 ± 0.082.

Turning to “A0A096LP25|Q2M2I8 and related entries (UniProt Q2M2I8)”, the NP40-soluble protein abundance was found to be 1.05 ± 0.048 (concentration: 0.1mM) and 1.04 ± 0.046 (concentration: 0.5mM).

As for “A0A0A0MQU0|Q9BV38 and related entries (UniProt Q9BV38)”, the NP40-soluble protein abundance runs as follows: (concentration: 0.1mM) 1.05 ± 0.074; (concentration: 0.5mM) 0.984 ± 0.064.

For the target A0A087WXR7|Q5TBB1 (UniProt Q5TBB1), the NP40-soluble protein abundance came out at 1 ± 0.039 (concentration: 0.1mM) and 1.03 ± 0.05 (concentration: 0.5mM).

“A0A0A0MT22|P08575 and related entries (UniProt P08575)”: the NP40-soluble protein abundance was determined as 0.977 ± 0.014 (concentration: 0.1mM) and 0.987 ± 0.024 (concentration: 0.5mM).

“A0A0A6YYH1|H0YLI7 and related entries (UniProt Q7Z6K5+P59780+H0YLI7)”: the NP40-soluble protein abundance (concentration: 0.1mM) was found to be 0.969 ± 0.033 and the NP40-soluble protein abundance (concentration: 0.5mM) came out at 0.986 ± 0.032.

With “A0A087WWP8|A0A0C4DGT8|Q5VWQ0 (UniProt Q5VWQ0)”, the NP40-soluble protein abundance was found to be 1.04 ± 0.012 (concentration: 0.1mM) and 1.05 ± 0.05 (concentration: 0.5mM).

Take “A0A0A0MRW1|Q5T593 and related entries (UniProt Q8IW50)”: the NP40-soluble protein abundance is, setting by setting: (concentration: 0.1mM) 0.942 ± 0.027; (concentration: 0.5mM) 0.969 ± 0.034.
